In patent US20160369115A1, “POLARIZING PLATE COMPOSITION, POLARIZING PLATE PROTECTIVE FILM, POLARIZER, POLARIZING PLATE, LIQUID CRYSTAL DISPLAY DEVICE, AND COMPOUND USED IN THE LIQUID CRYSTAL DISPLAY DEVICE” (FUJIFILM Corporation, priority 2014, published 2016):
Some compounds share one wording; it may come from a single statement. Some ranges recur; such a range may be that of the whole group of compounds.

Assays:
[1] = Durability evaluation of polarizing plate, additive in polarizing plate protective film (Example 1); conditions: 410 nm
[2] = Evaluation of light-fast adhesiveness of polarizing plate protective film with hardcoat layer; conditions: light 96 hours, 60° C., 50% RH
[3] = additive in protective film: Acrylic resin, 23 μm, added amount 4.0 per 100 parts by mass of film resin
[4] = additive in protective film: COP, 23 μm, added amount 4.0 per 100 parts by mass of film resin
[5] = additive in protective film: Cellulose acylate, 25 μm, added amount 1.0 per 100 parts by mass of film resin
[6] = additive in protective film: Cellulose acylate, 25 μm, added amount 2.0 per 100 parts by mass of film resin
[7] = additive in protective film: Cellulose acylate, 25 μm, added amount 4.0 per 100 parts by mass of film resin
[8] = additive in protective film: Cellulose acylate, 40 μm, added amount 4.0 per 100 parts by mass of film resin
[9] = additive in protective film: Cellulose acylate, 60 μm, added amount 4.0 per 100 parts by mass of film resin
[10] = additive in protective film: Cellulose acylate, 80 μm, added amount 4.0 per 100 parts by mass of film resin
[11] = additive in protective film: PET, 50 μm, added amount 4.0 per 100 parts by mass of film resin

COC(=O)Oc1c(Cc2ccccc2)c(=O)n(-c2ccccc2)c(=O)n1Cc1ccccc1 [Example compound A]
Durability of polarizer: amount of change of orthogonal transmittance (%) 60° C., 95%, 500 hours [1, 3]: A+ (The amount of change of the orthogonal transmittance before and after the elapse of time was less than 0.4%.)
Durability of polarizer: amount of change of orthogonal transmittance (%) 60° C., 95%, 1,000 hours [1, 3]: A+ (The amount of change of the orthogonal transmittance before and after the elapse of time was less than 1.0%.)
Durability of polarizer: amount of change of orthogonal transmittance (%) 80° C., Dry 500 hours [1, 3]: A+ (The amount of change of the orthogonal transmittance before and after the elapse of time was less than 0.1%.)
Durability of polarizer: amount of change of orthogonal transmittance (%) 80° C., Dry, 1,000 hours [1, 3]: A+ (The amount of change of the orthogonal transmittance before and after the elapse of time was less than 0.5%.)
Durability of polarizer: amount of change of orthogonal transmittance (%) 60° C., 95%, 500 hours [1, 4]: A+ (The amount of change of the orthogonal transmittance before and after the elapse of time was less than 0.4%.)
Durability of polarizer: amount of change of orthogonal transmittance (%) 60° C., 95%, 1,000 hours [1, 4]: A+ (The amount of change of the orthogonal transmittance before and after the elapse of time was less than 1.0%.)
Durability of polarizer: amount of change of orthogonal transmittance (%) 80° C., Dry 500 hours [1, 4]: A+ (The amount of change of the orthogonal transmittance before and after the elapse of time was less than 0.1%.)
Durability of polarizer: amount of change of orthogonal transmittance (%) 80° C., Dry, 1,000 hours [1, 4]: A+ (The amount of change of the orthogonal transmittance before and after the elapse of time was less than 0.5%.)
Durability of polarizer: amount of change of orthogonal transmittance (%) 60° C., 95%, 500 hours [1, 5]: A+ (The amount of change of the orthogonal transmittance before and after the elapse of time was less than 0.4%.)
Durability of polarizer: amount of change of orthogonal transmittance (%) 60° C., 95%, 1,000 hours [1, 5]: A (The amount of change of the orthogonal transmittance before and after the elapse of time was equal to or greater than 1.0% and less than 1.4%.)
Durability of polarizer: amount of change of orthogonal transmittance (%) 80° C., Dry 500 hours [1, 5]: A+ (The amount of change of the orthogonal transmittance before and after the elapse of time was less than 0.1%.)
Durability of polarizer: amount of change of orthogonal transmittance (%) 80° C., Dry, 1,000 hours [1, 5]: A (The amount of change of the orthogonal transmittance before and after the elapse of time was equal to or greater than 0.5% and less than 0.8%.)
Durability of polarizer: amount of change of orthogonal transmittance (%) 60° C., 95%, 500 hours [1, 6]: A+ (The amount of change of the orthogonal transmittance before and after the elapse of time was less than 0.4%.)
Durability of polarizer: amount of change of orthogonal transmittance (%) 60° C., 95%, 1,000 hours [1, 6]: A (The amount of change of the orthogonal transmittance before and after the elapse of time was equal to or greater than 1.0% and less than 1.4%.)
Durability of polarizer: amount of change of orthogonal transmittance (%) 80° C., Dry 500 hours [1, 6]: A+ (The amount of change of the orthogonal transmittance before and after the elapse of time was less than 0.1%.)
Durability of polarizer: amount of change of orthogonal transmittance (%) 80° C., Dry, 1,000 hours [1, 6]: A (The amount of change of the orthogonal transmittance before and after the elapse of time was equal to or greater than 0.5% and less than 0.8%.)
Durability of polarizer: amount of change of orthogonal transmittance (%) 60° C., 95%, 500 hours [1, 7]: A+ (The amount of change of the orthogonal transmittance before and after the elapse of time was less than 0.4%.)
Durability of polarizer: amount of change of orthogonal transmittance (%) 60° C., 95%, 1,000 hours [1, 7]: A+ (The amount of change of the orthogonal transmittance before and after the elapse of time was less than 1.0%.)
Durability of polarizer: amount of change of orthogonal transmittance (%) 80° C., Dry 500 hours [1, 7]: A+ (The amount of change of the orthogonal transmittance before and after the elapse of time was less than 0.1%.)
Durability of polarizer: amount of change of orthogonal transmittance (%) 80° C., Dry, 1,000 hours [1, 7]: A+ (The amount of change of the orthogonal transmittance before and after the elapse of time was less than 0.5%.)
Durability of polarizer: amount of change of orthogonal transmittance (%) 60° C., 95%, 500 hours [1, 8]: A+ (The amount of change of the orthogonal transmittance before and after the elapse of time was less than 0.2%.)
Durability of polarizer: amount of change of orthogonal transmittance (%) 60° C., 95%, 1,000 hours [1, 8]: A+ (The amount of change of the orthogonal transmittance before and after the elapse of time was less than 0.7%.)
Durability of polarizer: amount of change of orthogonal transmittance (%) 80° C., Dry 500 hours [1, 8]: A+ (The amount of change of the orthogonal transmittance before and after the elapse of time was less than 0.2%.)
Durability of polarizer: amount of change of orthogonal transmittance (%) 80° C., Dry, 1,000 hours [1, 8]: A+ (The amount of change of the orthogonal transmittance before and after the elapse of time was less than 0.6%.)
Durability of polarizer: amount of change of orthogonal transmittance (%) 60° C., 95%, 500 hours [1, 9]: A+ (The amount of change of the orthogonal transmittance before and after the elapse of time was less than 0.2%.)
Durability of polarizer: amount of change of orthogonal transmittance (%) 60° C., 95%, 1,000 hours [1, 9]: A+ (The amount of change of the orthogonal transmittance before and after the elapse of time was less than 0.4%.)
Durability of polarizer: amount of change of orthogonal transmittance (%) 80° C., Dry 500 hours [1, 9]: A+ (The amount of change of the orthogonal transmittance before and after the elapse of time was less than 0.1%.)
Durability of polarizer: amount of change of orthogonal transmittance (%) 80° C., Dry, 1,000 hours [1, 9]: A+ (The amount of change of the orthogonal transmittance before and after the elapse of time was less than 0.3%.)
Durability of polarizer: amount of change of orthogonal transmittance (%) 60° C., 95%, 500 hours [1, 10]: A+ (The amount of change of the orthogonal transmittance before and after the elapse of time was less than 0.1%.)
Durability of polarizer: amount of change of orthogonal transmittance (%) 60° C., 95%, 1,000 hours [1, 10]: A+ (The amount of change of the orthogonal transmittance before and after the elapse of time was less than 0.3%.)
Durability of polarizer: amount of change of orthogonal transmittance (%) 80° C., Dry 500 hours [1, 10]: A+ (The amount of change of the orthogonal transmittance before and after the elapse of time was less than 0.07%.)
Durability of polarizer: amount of change of orthogonal transmittance (%) 80° C., Dry, 1,000 hours [1, 10]: A+ (The amount of change of the orthogonal transmittance before and after the elapse of time was less than 0.1%.)
Durability of polarizer: amount of change of orthogonal transmittance (%) 60° C., 95%, 500 hours [1, 11]: A+ (The amount of change of the orthogonal transmittance before and after the elapse of time was less than 0.2%.)
Durability of polarizer: amount of change of orthogonal transmittance (%) 60° C., 95%, 1,000 hours [1, 11]: A+ (The amount of change of the orthogonal transmittance before and after the elapse of time was less than 0.5%.)
Durability of polarizer: amount of change of orthogonal transmittance (%) 80° C., Dry 500 hours [1, 11]: A+ (The amount of change of the orthogonal transmittance before and after the elapse of time was less than 0.1%.)
Durability of polarizer: amount of change of orthogonal transmittance (%) 80° C., Dry, 1,000 hours [1, 11]: A+ (The amount of change of the orthogonal transmittance before and after the elapse of time was less than 0.4%.)
Light-fast adhesiveness [2, 3]: A (The number of cells peeled off among 100 cells was equal to or less than 10.)
Light-fast adhesiveness [2, 4]: A (The number of cells peeled off among 100 cells was equal to or less than 10.)
Light-fast adhesiveness [2, 5]: B (The number of cells peeled off among 100 cells was 11 to 20.)
Light-fast adhesiveness [2, 6]: B (The number of cells peeled off among 100 cells was 11 to 20.)
Light-fast adhesiveness [2, 7]: A (The number of cells peeled off among 100 cells was equal to or less than 10.)
Light-fast adhesiveness [2, 8]: A (The number of cells peeled off among 100 cells was equal to or less than 10.)
Light-fast adhesiveness [2, 9]: A (The number of cells peeled off among 100 cells was equal to or less than 10.)
Light-fast adhesiveness [2, 10]: A (The number of cells peeled off among 100 cells was equal to or less than 10.)
Light-fast adhesiveness [2, 11]: A (The number of cells peeled off among 100 cells was equal to or less than 10.)

COC(=O)Oc1[nH]c(=O)n(Cc2ccc(C=O)cc2)c(=O)c1Cc1ccccc1 [Example compound AAD]
Durability of polarizer: amount of change of orthogonal transmittance (%) 60° C., 95%, 500 hours [1, 7]: A+ (The amount of change of the orthogonal transmittance before and after the elapse of time was less than 0.4%.)
Durability of polarizer: amount of change of orthogonal transmittance (%) 60° C., 95%, 1,000 hours [1, 7]: A+ (The amount of change of the orthogonal transmittance before and after the elapse of time was less than 1.0%.)
Durability of polarizer: amount of change of orthogonal transmittance (%) 80° C., Dry 500 hours [1, 7]: A+ (The amount of change of the orthogonal transmittance before and after the elapse of time was less than 0.1%.)
Durability of polarizer: amount of change of orthogonal transmittance (%) 80° C., Dry, 1,000 hours [1, 7]: A+ (The amount of change of the orthogonal transmittance before and after the elapse of time was less than 0.5%.)
Light-fast adhesiveness [2, 7]: A (The number of cells peeled off among 100 cells was equal to or less than 10.)

COC(=O)Oc1c(Cc2ccc(F)c(F)c2)c(=O)n(-c2ccccc2)c(=O)n1Cc1ccccc1 [Example compound AAQ]
Durability of polarizer: amount of change of orthogonal transmittance (%) 60° C., 95%, 500 hours [1, 7]: A (The amount of change of the orthogonal transmittance before and after the elapse of time was equal to or greater than 0.4% and less than 0.6%.)
Durability of polarizer: amount of change of orthogonal transmittance (%) 60° C., 95%, 1,000 hours [1, 7]: A (The amount of change of the orthogonal transmittance before and after the elapse of time was equal to or greater than 1.0% and less than 1.4%.)
Durability of polarizer: amount of change of orthogonal transmittance (%) 80° C., Dry 500 hours [1, 7]: A (The amount of change of the orthogonal transmittance before and after the elapse of time was equal to or greater than 0.1% and less than 0.3%.)
Durability of polarizer: amount of change of orthogonal transmittance (%) 80° C., Dry, 1,000 hours [1, 7]: A (The amount of change of the orthogonal transmittance before and after the elapse of time was equal to or greater than 0.5% and less than 0.8%.)
Light-fast adhesiveness [2, 7]: A (The number of cells peeled off among 100 cells was equal to or less than 10.)
